Test results from paper PMC10646096.

Protein sequences, listed by entry. Tags and fused reporters are not part of them. Residues count along the entry.
UniProt P51668: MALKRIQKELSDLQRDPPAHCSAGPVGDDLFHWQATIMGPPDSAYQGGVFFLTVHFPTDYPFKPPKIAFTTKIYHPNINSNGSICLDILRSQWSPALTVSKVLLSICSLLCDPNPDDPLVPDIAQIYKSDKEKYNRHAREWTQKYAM
UniProt P63279: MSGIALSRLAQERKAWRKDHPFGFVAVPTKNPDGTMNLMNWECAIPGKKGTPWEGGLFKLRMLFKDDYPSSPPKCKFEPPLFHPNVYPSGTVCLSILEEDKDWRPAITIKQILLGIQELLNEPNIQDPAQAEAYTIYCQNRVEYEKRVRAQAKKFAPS
UniProt P22314: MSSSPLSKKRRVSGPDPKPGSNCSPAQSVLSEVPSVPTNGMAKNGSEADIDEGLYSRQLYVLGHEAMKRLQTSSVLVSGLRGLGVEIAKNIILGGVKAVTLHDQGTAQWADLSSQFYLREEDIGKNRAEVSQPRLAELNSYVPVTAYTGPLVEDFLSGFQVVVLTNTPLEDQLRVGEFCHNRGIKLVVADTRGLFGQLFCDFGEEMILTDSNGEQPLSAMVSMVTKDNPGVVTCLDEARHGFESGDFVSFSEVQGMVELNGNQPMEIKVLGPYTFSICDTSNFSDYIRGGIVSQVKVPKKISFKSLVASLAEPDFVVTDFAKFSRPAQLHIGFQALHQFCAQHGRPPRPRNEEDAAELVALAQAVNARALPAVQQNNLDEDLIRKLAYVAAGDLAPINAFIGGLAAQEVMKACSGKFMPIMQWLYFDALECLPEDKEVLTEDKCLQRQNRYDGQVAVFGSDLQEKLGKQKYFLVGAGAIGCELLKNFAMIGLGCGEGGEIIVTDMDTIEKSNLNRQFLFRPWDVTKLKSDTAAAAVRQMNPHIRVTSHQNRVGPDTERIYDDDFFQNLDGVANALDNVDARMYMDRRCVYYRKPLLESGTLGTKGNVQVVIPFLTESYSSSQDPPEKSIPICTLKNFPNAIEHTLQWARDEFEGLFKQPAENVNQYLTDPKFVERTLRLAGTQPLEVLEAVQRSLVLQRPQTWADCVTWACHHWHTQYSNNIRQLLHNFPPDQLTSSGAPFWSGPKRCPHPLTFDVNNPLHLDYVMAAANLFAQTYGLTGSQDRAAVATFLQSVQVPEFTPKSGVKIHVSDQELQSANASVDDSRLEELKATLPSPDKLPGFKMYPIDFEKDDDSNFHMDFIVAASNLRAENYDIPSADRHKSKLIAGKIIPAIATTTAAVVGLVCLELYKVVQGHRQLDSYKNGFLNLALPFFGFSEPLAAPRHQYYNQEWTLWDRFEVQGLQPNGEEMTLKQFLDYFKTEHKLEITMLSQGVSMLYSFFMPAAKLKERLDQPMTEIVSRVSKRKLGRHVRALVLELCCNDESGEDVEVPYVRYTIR
UniProt Q9GZZ9: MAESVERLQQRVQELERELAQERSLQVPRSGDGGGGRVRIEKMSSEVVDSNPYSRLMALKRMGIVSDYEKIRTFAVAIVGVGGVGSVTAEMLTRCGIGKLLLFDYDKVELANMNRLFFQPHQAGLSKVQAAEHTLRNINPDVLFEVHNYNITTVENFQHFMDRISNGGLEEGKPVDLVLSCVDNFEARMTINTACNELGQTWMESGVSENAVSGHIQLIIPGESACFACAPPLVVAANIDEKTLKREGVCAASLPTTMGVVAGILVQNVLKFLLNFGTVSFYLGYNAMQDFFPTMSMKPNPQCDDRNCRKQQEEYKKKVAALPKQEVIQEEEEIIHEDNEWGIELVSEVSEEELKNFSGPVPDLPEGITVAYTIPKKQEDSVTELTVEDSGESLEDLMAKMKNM
UniProt Q9ULT8: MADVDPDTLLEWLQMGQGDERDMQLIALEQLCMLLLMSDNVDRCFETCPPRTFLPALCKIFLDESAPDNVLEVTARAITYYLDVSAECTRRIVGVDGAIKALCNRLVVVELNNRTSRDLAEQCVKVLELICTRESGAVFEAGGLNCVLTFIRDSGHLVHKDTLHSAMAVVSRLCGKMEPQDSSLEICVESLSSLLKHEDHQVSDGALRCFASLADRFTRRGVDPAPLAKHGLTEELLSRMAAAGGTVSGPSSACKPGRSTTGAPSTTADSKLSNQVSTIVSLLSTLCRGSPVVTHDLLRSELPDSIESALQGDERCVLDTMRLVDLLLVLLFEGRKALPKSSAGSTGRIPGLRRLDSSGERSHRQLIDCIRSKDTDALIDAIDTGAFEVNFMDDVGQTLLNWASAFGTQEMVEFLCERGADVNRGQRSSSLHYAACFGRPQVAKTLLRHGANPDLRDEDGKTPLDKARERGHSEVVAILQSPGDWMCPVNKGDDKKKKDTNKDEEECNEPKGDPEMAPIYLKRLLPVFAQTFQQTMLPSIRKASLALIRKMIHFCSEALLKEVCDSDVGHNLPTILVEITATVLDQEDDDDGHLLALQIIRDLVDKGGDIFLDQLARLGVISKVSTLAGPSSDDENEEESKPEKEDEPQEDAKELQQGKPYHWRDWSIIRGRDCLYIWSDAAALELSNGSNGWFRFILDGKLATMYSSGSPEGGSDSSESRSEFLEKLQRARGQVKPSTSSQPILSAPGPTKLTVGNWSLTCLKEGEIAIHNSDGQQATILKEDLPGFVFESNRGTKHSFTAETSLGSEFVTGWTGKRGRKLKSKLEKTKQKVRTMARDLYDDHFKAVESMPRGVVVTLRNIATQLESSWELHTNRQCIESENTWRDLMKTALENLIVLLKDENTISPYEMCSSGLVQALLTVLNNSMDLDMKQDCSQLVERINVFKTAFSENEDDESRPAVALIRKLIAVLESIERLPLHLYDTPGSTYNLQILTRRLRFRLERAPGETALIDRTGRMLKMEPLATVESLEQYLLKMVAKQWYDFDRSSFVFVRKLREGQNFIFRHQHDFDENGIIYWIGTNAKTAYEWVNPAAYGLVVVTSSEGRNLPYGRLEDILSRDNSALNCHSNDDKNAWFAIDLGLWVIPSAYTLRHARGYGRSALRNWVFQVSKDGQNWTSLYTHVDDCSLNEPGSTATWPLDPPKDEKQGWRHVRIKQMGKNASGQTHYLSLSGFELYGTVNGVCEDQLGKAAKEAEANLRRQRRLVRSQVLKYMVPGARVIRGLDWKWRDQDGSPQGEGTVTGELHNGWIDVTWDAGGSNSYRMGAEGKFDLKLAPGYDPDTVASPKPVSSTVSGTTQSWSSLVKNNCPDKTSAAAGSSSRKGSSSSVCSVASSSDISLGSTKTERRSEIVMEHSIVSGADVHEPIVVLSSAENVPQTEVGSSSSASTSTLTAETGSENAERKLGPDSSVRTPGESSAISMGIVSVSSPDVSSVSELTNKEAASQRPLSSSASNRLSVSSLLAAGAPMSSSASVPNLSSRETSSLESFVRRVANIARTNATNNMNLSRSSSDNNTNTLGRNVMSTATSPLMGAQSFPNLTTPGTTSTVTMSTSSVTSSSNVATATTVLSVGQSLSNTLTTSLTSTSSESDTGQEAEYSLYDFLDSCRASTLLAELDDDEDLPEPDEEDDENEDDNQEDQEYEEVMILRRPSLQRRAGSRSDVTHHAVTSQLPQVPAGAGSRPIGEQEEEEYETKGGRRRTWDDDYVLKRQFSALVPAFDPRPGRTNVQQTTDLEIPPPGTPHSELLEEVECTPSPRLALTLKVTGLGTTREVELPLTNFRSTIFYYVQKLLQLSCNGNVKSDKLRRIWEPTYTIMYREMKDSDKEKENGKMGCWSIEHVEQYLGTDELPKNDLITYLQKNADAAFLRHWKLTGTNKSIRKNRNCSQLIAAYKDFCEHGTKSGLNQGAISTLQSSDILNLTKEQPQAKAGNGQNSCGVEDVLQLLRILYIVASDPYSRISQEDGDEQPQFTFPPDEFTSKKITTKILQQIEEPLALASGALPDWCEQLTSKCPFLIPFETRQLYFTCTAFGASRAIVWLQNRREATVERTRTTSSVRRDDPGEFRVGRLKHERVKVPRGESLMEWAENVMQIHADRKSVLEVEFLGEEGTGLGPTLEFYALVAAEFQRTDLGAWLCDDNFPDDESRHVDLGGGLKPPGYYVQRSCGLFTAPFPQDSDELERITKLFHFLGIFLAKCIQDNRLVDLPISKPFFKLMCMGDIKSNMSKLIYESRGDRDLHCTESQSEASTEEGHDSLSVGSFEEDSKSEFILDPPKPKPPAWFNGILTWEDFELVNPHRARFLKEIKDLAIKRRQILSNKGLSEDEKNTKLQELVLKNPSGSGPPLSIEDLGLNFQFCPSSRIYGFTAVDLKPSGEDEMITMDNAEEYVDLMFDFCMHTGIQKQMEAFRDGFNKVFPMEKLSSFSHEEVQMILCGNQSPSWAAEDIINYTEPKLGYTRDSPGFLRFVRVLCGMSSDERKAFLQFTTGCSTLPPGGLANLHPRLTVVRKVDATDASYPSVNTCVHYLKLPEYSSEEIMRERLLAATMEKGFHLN
UniProt P55854, residues 1-92: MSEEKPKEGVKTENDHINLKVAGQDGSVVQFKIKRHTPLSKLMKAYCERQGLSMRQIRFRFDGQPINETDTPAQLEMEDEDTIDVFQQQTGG
UniProt Q96LR5: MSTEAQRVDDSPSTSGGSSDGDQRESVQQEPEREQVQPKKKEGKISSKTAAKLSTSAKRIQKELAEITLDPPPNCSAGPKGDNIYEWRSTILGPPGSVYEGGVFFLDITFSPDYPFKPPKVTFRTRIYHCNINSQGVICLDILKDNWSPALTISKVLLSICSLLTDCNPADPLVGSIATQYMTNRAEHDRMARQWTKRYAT
UniProt O14933: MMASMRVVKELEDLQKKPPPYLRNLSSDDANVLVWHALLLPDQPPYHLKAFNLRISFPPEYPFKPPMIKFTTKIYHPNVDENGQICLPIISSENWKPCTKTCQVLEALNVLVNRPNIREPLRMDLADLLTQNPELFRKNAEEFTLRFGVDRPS
UniProt P49427: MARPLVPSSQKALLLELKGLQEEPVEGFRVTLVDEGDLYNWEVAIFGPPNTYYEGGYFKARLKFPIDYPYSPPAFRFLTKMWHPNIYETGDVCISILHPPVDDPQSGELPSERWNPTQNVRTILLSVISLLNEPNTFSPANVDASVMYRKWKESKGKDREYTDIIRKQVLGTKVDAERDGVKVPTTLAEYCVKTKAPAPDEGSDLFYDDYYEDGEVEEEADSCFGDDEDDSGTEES
UniProt Q16763: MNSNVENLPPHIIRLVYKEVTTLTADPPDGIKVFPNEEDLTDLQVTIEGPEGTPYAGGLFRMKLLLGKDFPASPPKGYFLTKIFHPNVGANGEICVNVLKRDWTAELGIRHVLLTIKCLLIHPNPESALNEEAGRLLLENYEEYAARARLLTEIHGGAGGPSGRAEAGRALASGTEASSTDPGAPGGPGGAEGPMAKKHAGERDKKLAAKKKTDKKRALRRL
UniProt Q15819: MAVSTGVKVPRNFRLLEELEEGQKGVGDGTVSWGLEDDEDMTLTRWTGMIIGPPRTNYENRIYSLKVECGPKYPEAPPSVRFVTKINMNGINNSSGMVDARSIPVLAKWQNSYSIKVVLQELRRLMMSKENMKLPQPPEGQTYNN

Columns and labels:
Assay in all cases: affinity purification with mass spectrometry; C-terminally FLAG-tagged E1/E2 baits transfected in HEK293T; NP40 lysate, FLAG affinity resin at 4 °C overnight, eluted with FLAG peptide; spectral counting, SAINT >= 0.65 against no-FLAG controls; 3 replicates a bait, 10 controls
UBE2D1 (human) = UBE2D1 (human) (UniProt P51668)
UBE2I (human) = UBE2I (human) (UniProt P63279)
UBE2M (human) = UBE2M (human) (UniProt P61081)
UBA1 (human) = UBA1 (human) (UniProt P22314)
SAE1 (human) = molecular target: T1, SAE1 (human) (UniProt Q9UBE0)
T1 sequence: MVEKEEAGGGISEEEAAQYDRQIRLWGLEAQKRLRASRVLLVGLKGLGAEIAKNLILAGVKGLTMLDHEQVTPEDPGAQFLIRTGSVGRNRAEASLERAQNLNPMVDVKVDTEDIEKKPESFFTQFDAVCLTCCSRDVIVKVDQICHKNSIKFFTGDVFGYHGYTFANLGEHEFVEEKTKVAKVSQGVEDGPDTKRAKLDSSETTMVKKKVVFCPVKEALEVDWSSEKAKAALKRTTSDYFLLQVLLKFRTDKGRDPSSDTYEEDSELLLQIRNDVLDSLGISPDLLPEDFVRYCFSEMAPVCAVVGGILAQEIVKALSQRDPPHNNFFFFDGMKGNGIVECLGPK

UBA5 (human) = UBA5 (human) (UniProt Q9GZZ9)
NAE1 (human) = molecular target: T2, NAE1 (human) (UniProt Q13564)
T2 sequence: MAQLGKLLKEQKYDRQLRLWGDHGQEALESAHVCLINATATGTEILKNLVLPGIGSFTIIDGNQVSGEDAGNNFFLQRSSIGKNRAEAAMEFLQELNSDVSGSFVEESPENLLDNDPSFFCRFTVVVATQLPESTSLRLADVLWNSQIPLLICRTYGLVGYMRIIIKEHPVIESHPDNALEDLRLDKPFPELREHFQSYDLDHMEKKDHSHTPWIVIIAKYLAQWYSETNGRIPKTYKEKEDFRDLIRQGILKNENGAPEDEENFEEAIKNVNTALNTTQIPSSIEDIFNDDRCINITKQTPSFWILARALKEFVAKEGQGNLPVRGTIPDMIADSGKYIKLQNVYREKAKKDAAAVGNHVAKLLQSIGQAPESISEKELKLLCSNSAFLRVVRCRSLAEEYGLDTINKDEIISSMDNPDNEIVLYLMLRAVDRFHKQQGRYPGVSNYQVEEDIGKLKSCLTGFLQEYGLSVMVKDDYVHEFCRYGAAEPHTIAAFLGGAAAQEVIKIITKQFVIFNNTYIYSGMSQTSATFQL

UBA2 (human) = molecular target: T3, UBA2 (human) (UniProt Q9UBT2)
T3 sequence: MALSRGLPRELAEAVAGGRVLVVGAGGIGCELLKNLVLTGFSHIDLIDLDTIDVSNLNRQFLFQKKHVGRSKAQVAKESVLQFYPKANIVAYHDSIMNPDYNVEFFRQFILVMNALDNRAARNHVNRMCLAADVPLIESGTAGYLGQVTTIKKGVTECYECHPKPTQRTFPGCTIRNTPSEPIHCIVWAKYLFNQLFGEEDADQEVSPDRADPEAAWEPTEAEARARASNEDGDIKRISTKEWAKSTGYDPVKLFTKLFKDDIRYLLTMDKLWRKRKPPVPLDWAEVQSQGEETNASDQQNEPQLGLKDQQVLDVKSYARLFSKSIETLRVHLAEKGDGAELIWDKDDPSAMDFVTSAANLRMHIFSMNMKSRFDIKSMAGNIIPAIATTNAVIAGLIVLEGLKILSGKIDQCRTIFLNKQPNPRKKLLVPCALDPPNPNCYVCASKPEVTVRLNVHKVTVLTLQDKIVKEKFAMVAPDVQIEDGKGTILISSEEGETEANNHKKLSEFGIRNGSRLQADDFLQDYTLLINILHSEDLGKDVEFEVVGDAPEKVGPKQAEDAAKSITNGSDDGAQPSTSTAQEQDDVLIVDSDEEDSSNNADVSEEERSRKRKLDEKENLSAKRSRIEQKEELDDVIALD

UBA6 (human) = molecular target: T4, UBA6 (human) (UniProt A0AVT1)
T4 sequence: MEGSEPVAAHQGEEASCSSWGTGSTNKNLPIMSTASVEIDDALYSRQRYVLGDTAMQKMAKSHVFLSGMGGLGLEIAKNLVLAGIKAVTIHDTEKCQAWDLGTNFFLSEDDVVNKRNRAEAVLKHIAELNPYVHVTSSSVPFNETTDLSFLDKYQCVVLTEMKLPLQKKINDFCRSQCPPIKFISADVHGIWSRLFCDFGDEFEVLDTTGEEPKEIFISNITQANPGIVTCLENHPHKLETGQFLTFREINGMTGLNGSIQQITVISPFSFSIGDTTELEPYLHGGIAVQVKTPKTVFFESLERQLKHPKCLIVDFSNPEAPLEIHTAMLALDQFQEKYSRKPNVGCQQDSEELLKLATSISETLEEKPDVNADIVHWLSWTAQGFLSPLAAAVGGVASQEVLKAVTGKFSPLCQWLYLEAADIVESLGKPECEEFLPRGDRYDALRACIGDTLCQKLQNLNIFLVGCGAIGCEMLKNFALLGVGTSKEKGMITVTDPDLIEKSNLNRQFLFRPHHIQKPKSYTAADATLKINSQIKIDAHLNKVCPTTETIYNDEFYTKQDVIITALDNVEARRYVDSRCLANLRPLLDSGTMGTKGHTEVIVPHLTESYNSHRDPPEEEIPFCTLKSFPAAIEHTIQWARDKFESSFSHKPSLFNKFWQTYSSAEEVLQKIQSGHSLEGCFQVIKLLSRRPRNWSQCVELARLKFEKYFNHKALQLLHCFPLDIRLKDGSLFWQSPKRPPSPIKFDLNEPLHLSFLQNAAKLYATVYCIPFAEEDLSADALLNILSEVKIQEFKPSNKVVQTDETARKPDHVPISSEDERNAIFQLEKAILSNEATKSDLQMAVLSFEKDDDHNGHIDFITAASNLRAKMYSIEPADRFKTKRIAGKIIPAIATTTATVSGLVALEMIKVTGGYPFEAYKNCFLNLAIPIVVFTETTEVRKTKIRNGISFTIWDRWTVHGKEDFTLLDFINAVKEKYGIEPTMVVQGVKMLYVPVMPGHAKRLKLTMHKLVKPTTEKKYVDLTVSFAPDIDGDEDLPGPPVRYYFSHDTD

ATG7 (human) = molecular target: T5, ATG7 (human) (UniProt O95352)
T5 sequence: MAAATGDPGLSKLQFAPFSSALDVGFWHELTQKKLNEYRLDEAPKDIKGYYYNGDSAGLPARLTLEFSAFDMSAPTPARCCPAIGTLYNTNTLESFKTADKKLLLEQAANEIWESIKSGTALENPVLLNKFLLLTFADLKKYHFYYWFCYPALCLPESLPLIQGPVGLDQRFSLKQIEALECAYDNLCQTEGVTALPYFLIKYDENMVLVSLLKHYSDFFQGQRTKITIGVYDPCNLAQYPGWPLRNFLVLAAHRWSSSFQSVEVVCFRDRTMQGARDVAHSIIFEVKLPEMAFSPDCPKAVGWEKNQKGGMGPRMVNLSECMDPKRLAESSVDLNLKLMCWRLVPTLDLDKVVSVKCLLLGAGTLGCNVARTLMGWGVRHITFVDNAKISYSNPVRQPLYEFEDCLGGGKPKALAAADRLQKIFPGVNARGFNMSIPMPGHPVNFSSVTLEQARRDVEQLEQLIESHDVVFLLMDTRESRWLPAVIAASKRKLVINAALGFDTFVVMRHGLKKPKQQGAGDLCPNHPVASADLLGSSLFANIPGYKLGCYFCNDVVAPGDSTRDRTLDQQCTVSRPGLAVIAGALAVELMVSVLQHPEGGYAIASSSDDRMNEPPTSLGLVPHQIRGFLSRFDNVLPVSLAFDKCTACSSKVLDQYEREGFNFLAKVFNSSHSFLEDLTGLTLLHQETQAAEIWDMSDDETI

“HECTD1 (from UniProt Q9ULT8 1-2610) (enzyme)” was tested, and the binding (UBE2D1 (human)) was “binds”.
For “HERC1 (from UniProt Q15751 1-4861) (enzyme)”, the binding (UBE2D1 (human)) was “binds”.
In the case of “HUWE1 (from UniProt Q7Z6Z7 1-4374) (enzyme)”, the binding (UBE2D1 (human)) was “binds”.
With SUMO3 (from UniProt P55854 1-92) the binding (UBE2I (human)) was “binds”.
For “UBA3 (from UniProt Q8TBC4 1-463) (enzyme)”, the binding (UBE2M (human)) was “binds”.
For “UBE2E2 (from UniProt Q96LR5 1-201) (enzyme)”, the binding (UBA1 (human)) was “binds”.
In the case of “UBE2L6 (from UniProt O14933 1-153) (enzyme)”, the binding (UBA1 (human)) was “binds”.
“UBE2R1 (CDC34) (from UniProt P49427 1-236) (enzyme)” was tested, and the binding (UBA1 (human)) was “binds”.
“UBE2S (from UniProt Q16763 1-222) (enzyme)” was tested, and the binding (UBA1 (human)) was “binds”.
For UBE2V2 (from UniProt Q15819 1-145), the binding (SAE1 (human)) was “no binding”, the binding (UBA5 (human)) was “no binding” and the binding (NAE1 (human)) was “no binding”. The binding (UBA2 (human)) was “no binding”, the binding (UBA6 (human)) was “no binding” and the binding (ATG7 (human)) was “no binding”.

No constants are given. Whether binding was seen depends on the method and setting. Binding seen in cells or lysates may run through a third protein. A yes stands for co-enrichment or nearness to the bait. Other partners may have been found. For part of these data: A no says only that the protein was not detected with the bait.
